In patent publication US20260028402A1:
No constants are given. Whether binding was seen depends on the method and setting. Some results given as binding are weak or reduced against the parent protein; the word gives no strength.

Protein sequences, listed by entry. Tags and fused reporters are not part of them. Lines headed by an entry give the natural chain unless they say otherwise; changes in a name come on top. Chains listed by the source or under a name are the forms on record and can include a tag or linker. Residues count along the entry.
UniProt Q9NZQ7, residues 19-239: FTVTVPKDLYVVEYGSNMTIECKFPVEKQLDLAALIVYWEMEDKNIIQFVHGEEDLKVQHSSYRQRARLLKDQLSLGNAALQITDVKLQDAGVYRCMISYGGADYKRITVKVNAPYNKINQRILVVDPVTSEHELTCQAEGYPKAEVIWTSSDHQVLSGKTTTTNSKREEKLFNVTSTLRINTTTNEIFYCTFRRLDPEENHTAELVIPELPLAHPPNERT
cynomolgus monkey PD-L1 on cells (G7PSE7, form named): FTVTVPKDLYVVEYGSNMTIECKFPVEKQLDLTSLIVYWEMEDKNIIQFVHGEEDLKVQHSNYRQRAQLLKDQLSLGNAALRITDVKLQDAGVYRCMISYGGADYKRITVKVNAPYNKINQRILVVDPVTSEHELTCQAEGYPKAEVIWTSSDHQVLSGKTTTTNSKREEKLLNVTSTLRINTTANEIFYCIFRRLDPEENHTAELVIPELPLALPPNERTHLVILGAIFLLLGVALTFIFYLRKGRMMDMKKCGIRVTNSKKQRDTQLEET

Tests used:
[1] = target: B7-H1 (i.e., PD-L1) protein (Sino Biological, 10084-HNAH) (UniProt Q9NZQ7); experiment: ELISA, protein coated at 2 ug/mL
[2] = target: B7-H1 (i.e., PD-L1) protein (Sino Biological, 10084-HNAH) (UniProt Q9NZQ7); experiment: ELISA, protein coated at 2 ug/mL; legend: +: Binding activity detected
[3] = target: cynomolgus monkey PD-L1 on cells (cynomolgus monkey) (UniProt G7PSE7); experiment: flow cytometry on cynomolgus monkey PD-L1-CHO cells

- binding [1]: binds
- binding [2]: binds
- binding [3]: binds
B1: m18 (antibody, human IgG1, V domains shown)
VH: EVQLVESGGGLVQPGGSLRLSCAASRTDSNIHGMHWYRQAPGKGREWVGMIFIDGNTIVTDSVKGRFTISRDNAKNTLYLQMNTLRAEDTAVYYCAADSRGYGRAWGQGTTVTVSS
